± gives the standard deviation of the averaged measurements. The effect of the compound repeats well; differences between the knockouts mostly do not.
System: SKBR3
Test: relative cell number vs DMSO control (72 h) (% of DMSO); higher = less growth inhibition (more cells)
Experimental: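 QMAP-Seq: a pool of 5 breast cancer cell lines (ZR-75-1, SKBR3, HCC-38, MDA-MB-231, BT-20), each carrying 12 doxycycline-inducible Cas9 sgRNA perturbations (11 knockouts plus non-targeting sgNT), was treated with compounds for 72 h at four 10-fold doses (10 nM-10 uM or 1 nM-1 uM range). Barcodes were amplified and sequenced, and cell number was interpolated from 293T spike-in standard curves. The result is expressed as % of the median of DMSO wells. Two biological replicates.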

[1] = sgRNA knockout: sgATF3, 1000 nM
[2] = sgRNA knockout: sgATF3, 10000 nM
[3] = sgRNA knockout: sgATF4, 1000 nM
[4] = sgRNA knockout: sgATF4, 10000 nM
[5] = sgRNA knockout: sgATF6, 1000 nM
[6] = sgRNA knockout: sgATF6, 10000 nM
[7] = sgRNA knockout: sgATG7, 1000 nM
[8] = sgRNA knockout: sgATG7, 10000 nM
[9] = sgRNA knockout: sgERN1, 1000 nM
[10] = sgRNA knockout: sgERN1, 10000 nM
[11] = sgRNA knockout: sgHSF1, 1000 nM
[12] = sgRNA knockout: sgHSF1, 10000 nM
[13] = sgRNA knockout: sgHSF2, 1000 nM
[14] = sgRNA knockout: sgHSF2, 10000 nM
[15] = sgRNA knockout: sgKEAP1, 100 nM
[16] = sgRNA knockout: sgKEAP1, 1000 nM
[17] = sgRNA knockout: sgKEAP1, 10000 nM
[18] = sgRNA knockout: sgNFE2L2, 10 nM
[19] = sgRNA knockout: sgNFE2L2, 100 nM
[20] = sgRNA knockout: sgNFE2L2, 1000 nM
[21] = sgRNA knockout: sgNFE2L2, 10000 nM
[22] = sgRNA knockout: sgSLC35F2, 10 nM
[23] = sgRNA knockout: sgSLC35F2, 100 nM
[24] = sgRNA knockout: sgSLC35F2, 1000 nM
[25] = sgRNA knockout: sgSLC35F2, 10000 nM
[26] = sgRNA knockout: sgXBP1, 1000 nM
[27] = sgRNA knockout: sgXBP1, 10000 nM

`Nc1ccccc1NC(=O)c1ccc(CNC(=O)OCc2cccnc2)cc1` [Entinostat] showed a relative cell number (sgRNA knockout: sgATF3, 10 nM) of 108 ± 35, a relative cell number (sgRNA knockout: sgATF3, 100 nM) of 118.4 ± 0.71 and a relative cell number [1] of 23.4 ± 4.2. The relative cell number [2] was 7.01 ± 4.7, the relative cell number (sgRNA knockout: sgATF4, 10 nM) was 94.5 ± 13 and the relative cell number (sgRNA knockout: sgATF4, 100 nM) was 102 ± 5.1. For the same compound, the relative cell number [3] was 31.5 ± 5.2, the relative cell number [4] was 5.82 ± 5.2 and the relative cell number (sgRNA knockout: sgATF6, 10 nM) was 103 ± 5.2. The relative cell number (sgRNA knockout: sgATF6, 100 nM) was 98.77 ± 0.65, the relative cell number [5] was 23.2 ± 4 and the relative cell number [6] was 6.37 ± 2.1. For the same compound, the relative cell number (sgRNA knockout: sgATG7, 10 nM) was 85.4 ± 54, the relative cell number (sgRNA knockout: sgATG7, 100 nM) was 85.8 ± 32 and the relative cell number [7] was 26.2 ± 5.4. For the same compound, the relative cell number [8] was 7.71 ± 5, the relative cell number (sgRNA knockout: sgERN1, 10 nM) was 87.4 ± 1.3 and the relative cell number (sgRNA knockout: sgERN1, 100 nM) was 107 ± 17. For the same compound, the relative cell number [9] was 26.9 ± 5.5, the relative cell number [10] was 5.27 ± 4.1 and the relative cell number (sgRNA knockout: sgHSF1, 10 nM) was 107 ± 24. For the same compound, the relative cell number (sgRNA knockout: sgHSF1, 100 nM) was 76.7 ± 10, the relative cell number [11] was 24.6 ± 5.7 and the relative cell number [12] was 6.67 ± 3.7. The relative cell number (sgRNA knockout: sgHSF2, 10 nM) was 96.4 ± 3.6, the relative cell number (sgRNA knockout: sgHSF2, 100 nM) was 82.5 ± 7.1 and the relative cell number [13] was 23.7 ± 0.4. It also gave a relative cell number [14] of 6.85 ± 6.4, a relative cell number (sgRNA knockout: sgKEAP1, 10 nM) of 119 ± 2 and a relative cell number [15] of 90.5 ± 11. The relative cell number [16] was 29.6 ± 5, the relative cell number [17] was 7.08 ± 4 and the relative cell number [18] was 94.7 ± 1.4. The relative cell number [19] was 107 ± 32, the relative cell number [20] was 26.7 ± 4.1 and the relative cell number [21] was 8.28 ± 3.6. For the same compound, the relative cell number [22] was 98.6 ± 56, the relative cell number [23] was 122 ± 31 and the relative cell number [24] was 29.8 ± 3.6. For the same compound, the relative cell number [25] was 5.83 ± 6, the relative cell number (sgRNA knockout: sgXBP1, 10 nM) was 111 ± 21 and the relative cell number (sgRNA knockout: sgXBP1, 100 nM) was 118 ± 20. For the same compound, the relative cell number [26] was 28.7 ± 10 and the relative cell number [27] was 6.19 ± 5.5.

For `O=C(NOCC(O)CO)c1cc(Br)c(F)c(F)c1Nc1ccc(I)cc1F` (configuration not stated), the relative cell number (sgRNA knockout: sgATF3, 10 nM) was 122 ± 4.2, the relative cell number (sgRNA knockout: sgATF3, 100 nM) was 117 ± 29 and the relative cell number [1] was 91.3 ± 31. The relative cell number [2] was 110 ± 4.7, the relative cell number (sgRNA knockout: sgATF4, 10 nM) was 108 ± 6 and the relative cell number (sgRNA knockout: sgATF4, 100 nM) was 90.9 ± 5.4. The relative cell number [3] was 82.6 ± 12, the relative cell number [4] was 89.7 ± 6.4 and the relative cell number (sgRNA knockout: sgATF6, 10 nM) was 98.8 ± 13. For the same compound, the relative cell number (sgRNA knockout: sgATF6, 100 nM) was 71.1 ± 29, the relative cell number [5] was 92.7 ± 6.6 and the relative cell number [6] was 88.8 ± 2.1. For the same compound, the relative cell number (sgRNA knockout: sgATG7, 10 nM) was 109 ± 38, the relative cell number (sgRNA knockout: sgATG7, 100 nM) was 92.7 ± 0.12 and the relative cell number [7] was 80.8 ± 23. The relative cell number [8] was 81.1 ± 8.6, the relative cell number (sgRNA knockout: sgERN1, 10 nM) was 103 ± 21 and the relative cell number (sgRNA knockout: sgERN1, 100 nM) was 104 ± 15. It also gave a relative cell number [9] of 96.7 ± 12, a relative cell number [10] of 84.3 ± 5.9 and a relative cell number (sgRNA knockout: sgHSF1, 10 nM) of 101 ± 11. It also gave a relative cell number (sgRNA knockout: sgHSF1, 100 nM) of 76.5 ± 7.6, a relative cell number [11] of 87.8 ± 18 and a relative cell number [12] of 75.8 ± 3.3. For the same compound, the relative cell number (sgRNA knockout: sgHSF2, 10 nM) was 121 ± 8.7, the relative cell number (sgRNA knockout: sgHSF2, 100 nM) was 108 ± 3 and the relative cell number [13] was 86.21 ± 0.86. The relative cell number [14] was 81.6 ± 10, the relative cell number (sgRNA knockout: sgKEAP1, 10 nM) was 89.7 ± 12 and the relative cell number [15] was 76.1 ± 2.8. It also gave a relative cell number [16] of 87 ± 17, a relative cell number [17] of 77.5 ± 1.3 and a relative cell number [18] of 107.1 ± 0.25. For the same compound, the relative cell number [19] was 93.6 ± 22, the relative cell number [20] was 77.8 ± 10 and the relative cell number [21] was 96.25 ± 0.6. It also gave a relative cell number [22] of 93.4 ± 31, a relative cell number [23] of 91.3 ± 7.7 and a relative cell number [24] of 66.5 ± 1.4. It also gave a relative cell number [25] of 74.8 ± 26, a relative cell number (sgRNA knockout: sgXBP1, 10 nM) of 109 ± 16 and a relative cell number (sgRNA knockout: sgXBP1, 100 nM) of 104 ± 14. The relative cell number [26] was 91.4 ± 10 and the relative cell number [27] was 105 ± 11.

`Cc1ccc(F)c(NC(=O)Nc2ccc(-c3cccc4[nH]nc(N)c34)cc2)c1` [Linifanib] was tested, and the relative cell number (sgRNA knockout: sgATF3, 10 nM) was 103 ± 11, the relative cell number (sgRNA knockout: sgATF3, 100 nM) was 99.4 ± 8.2 and the relative cell number [1] was 110 ± 4.9. For the same compound, the relative cell number [2] was 39.6 ± 11, the relative cell number (sgRNA knockout: sgATF4, 10 nM) was 105 ± 24 and the relative cell number (sgRNA knockout: sgATF4, 100 nM) was 99.8 ± 2.8. The relative cell number [3] was 112 ± 11, the relative cell number [4] was 22.4 ± 3.5 and the relative cell number (sgRNA knockout: sgATF6, 10 nM) was 82.8 ± 36. It also gave a relative cell number (sgRNA knockout: sgATF6, 100 nM) of 118 ± 11, a relative cell number [5] of 112 ± 14 and a relative cell number [6] of 39.5 ± 3.6. For the same compound, the relative cell number (sgRNA knockout: sgATG7, 10 nM) was 114 ± 24, the relative cell number (sgRNA knockout: sgATG7, 100 nM) was 96.5 ± 26 and the relative cell number [7] was 85.8 ± 12. The relative cell number [8] was 36.05 ± 0.11, the relative cell number (sgRNA knockout: sgERN1, 10 nM) was 111 ± 28 and the relative cell number (sgRNA knockout: sgERN1, 100 nM) was 111 ± 24. For the same compound, the relative cell number [9] was 109 ± 15, the relative cell number [10] was 41.8 ± 19 and the relative cell number (sgRNA knockout: sgHSF1, 10 nM) was 96.7 ± 30. The relative cell number (sgRNA knockout: sgHSF1, 100 nM) was 79 ± 3.5, the relative cell number [11] was 117 ± 15 and the relative cell number [12] was 41.7 ± 12. For the same compound, the relative cell number (sgRNA knockout: sgHSF2, 10 nM) was 84.8 ± 21, the relative cell number (sgRNA knockout: sgHSF2, 100 nM) was 91.3 ± 1 and the relative cell number [13] was 99.4 ± 5.6. It also gave a relative cell number [14] of 28.4 ± 3.7, a relative cell number (sgRNA knockout: sgKEAP1, 10 nM) of 73 ± 25 and a relative cell number [15] of 86.3 ± 23. For the same compound, the relative cell number [16] was 106 ± 31, the relative cell number [17] was 43.2 ± 8.7 and the relative cell number [18] was 87.4 ± 26. It also gave a relative cell number [19] of 90.7 ± 6.8, a relative cell number [20] of 101 ± 14 and a relative cell number [21] of 35.1 ± 1.6. The relative cell number [22] was 85.2 ± 18, the relative cell number [23] was 79.1 ± 10 and the relative cell number [24] was 126 ± 9.9. It also gave a relative cell number [25] of 41.4 ± 13, a relative cell number (sgRNA knockout: sgXBP1, 10 nM) of 97.7 ± 45 and a relative cell number (sgRNA knockout: sgXBP1, 100 nM) of 106 ± 12. It also gave a relative cell number [26] of 112 ± 7.4 and a relative cell number [27] of 34.3 ± 5.5.

From the supplement of paper PMC7661543
